These are yes or no findings as the source states them, for the method shown. In cells and extracts the contact can be indirect. Some entries that bind do so weakly or less than the wild type. Where a sequence is shown, tags or fusion partners need not be part of it.

This is an account of results in publication PMC4823717.

The assay addresses T1, His10-σ32 T52C (E. coli) (UniProt P0AGB3).
T1 sequence: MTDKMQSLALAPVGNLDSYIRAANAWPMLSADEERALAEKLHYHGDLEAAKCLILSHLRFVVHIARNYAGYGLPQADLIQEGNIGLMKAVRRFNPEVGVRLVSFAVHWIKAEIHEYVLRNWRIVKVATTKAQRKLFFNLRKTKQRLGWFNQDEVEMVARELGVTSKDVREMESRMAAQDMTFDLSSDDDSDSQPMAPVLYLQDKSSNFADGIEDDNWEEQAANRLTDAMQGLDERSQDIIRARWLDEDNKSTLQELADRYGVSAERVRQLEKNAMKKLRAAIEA
The assay can be described thus: cross-linking; in vivo disulfide cross-linking: cells with His10-σ32 (Cys) and single-Cys Ffh treated with 50 μM Cu2+(phenanthroline)3 at 37 °C for 5 min, quenched, TALON isolation, SDS-PAGE with or without 2-mercaptoethanol, anti-Ffh immunoblotting. For orientation: In western blotting, separated proteins are transferred to a membrane and probed.

B1: Ffh M376C (single-Cys derivative of Cys-less Ffh C406S) (protein, UniProt P0AGD7 1-453)
chain: MFDNLTDRLSRTLRNISGRGRLTEDNVKDTLREVRMALLEADVALPVVREFINRVKEKAVGHEVNKSLTPGQEFVKIVRNELVAAMGEENQTLNLAAQPPAVVLMAGLQGAGKTTSVGKLGKFLREKHKKKVLVVSADVYRPAAIKQLETLAEQVGVDFFPSDVGQKPVDIVNAALKEAKLKFYDVLLVDTAGRLHVDEAMMDEIKQVHASINPVETLFVVDAMTGQDAANTAKAFNEALPLTGVVLTKVDGDARGGAALSIRHITGKPIKFLGVGEKTEALEPFHPDRIASRILGMGDVLSLIEDIESKVDRAQAEKLASKLKKGDGFDLNDFLEQLRQMKNMGGMASLMGKLPGMGQIPDNVKSQMDDKVLVRCEAIINSMTMKERAKPEIIKGSRKRRIAAGSGMQVQDVNRLLKQFDDMQRMMKKMKKGGMAKMMRSMKGMMPPGFPGR
In the case of B1, the binding entry is reported as “binds”.
